{"source": "PubChem BioAssay AID1259331 (Drosophila RNAi Screening Center, 2017)", "screen": "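Fly transmembrane-protein genes that affect zinc toxicity in cultured cells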 (primary screen)", "cells": "Drosophila S2R+ cells", "reagents": "long dsRNA against Drosophila genes", "timing": "5 days (4 days knock-down, then 1 day zinc)", "treatment": "zinc chloride at 15 mM final level for 1 day", "read-out": "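Total cellular ATP measured by luciferase luminescence as a viability proxy, turned into Z scores from three plate copies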", "direction": "mean Z score: higher = more ATP than other wells, better survival under zinc; ATP luminescence: higher = more ATP, more viable cells", "call rule": "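Hit when the absolute Z score is greater than 1.5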", "calls": "active = hit, ATP up or down; inactive = not a hit", "note": "Shown is an unselected part of about 3,100 reagents tested. 126 of all reagents (4.1%) were called active. 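Calls are per reagent; zinc was so toxic that few knock-downs lowered ATP further, so most hits raise ATP.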 Raw values vary from plate to plate and are shown uncorrected. The numbers tell different reagents against one gene apart. Names joined by + are all predicted targets of the reagent. Not given: the amount of reagent."}
{"Gene":"Orco (Odorant receptor co-receptor)","reagent":1,"mean Z score":-0.485,"ATP luminescence, replicate 1":66446,"ATP luminescence, replicate 2":49572,"activity call":"inactive"}
{"Gene":"Orco (Odorant receptor co-receptor)","reagent":2,"mean Z score":-1.08,"ATP luminescence, replicate 1":45543,"ATP luminescence, replicate 2":35890,"activity call":"inactive"}
{"Gene":"CG43672 + CG43673","reagent":1,"mean Z score":0.308,"ATP luminescence, replicate 1":66634,"ATP luminescence, replicate 2":75776,"activity call":"inactive"}
{"Gene":"CG43672 + CG43673","reagent":2,"mean Z score":-0.14,"ATP luminescence, replicate 1":59720,"ATP luminescence, replicate 2":67818,"activity call":"inactive"}
{"Gene":"Indy (I'm not dead yet)","reagent":1,"mean Z score":-0.525,"ATP luminescence, replicate 1":25331,"ATP luminescence, replicate 2":28471,"activity call":"inactive"}
{"Gene":"CG13579","reagent":1,"mean Z score":1.09,"ATP luminescence, replicate 1":62856,"ATP luminescence, replicate 2":42349,"activity call":"inactive"}
{"Gene":"CG13579","reagent":2,"mean Z score":-0.157,"ATP luminescence, replicate 1":62336,"ATP luminescence, replicate 2":51372,"activity call":"inactive"}

The list goes on (2 carried over from the part before).
{"Gene":"CG13579","reagent":1,"mean Z score":1.09,"ATP luminescence, replicate 1":62856,"ATP luminescence, replicate 2":42349,"activity call":"inactive"}
{"Gene":"CG13579","reagent":2,"mean Z score":-0.157,"ATP luminescence, replicate 1":62336,"ATP luminescence, replicate 2":51372,"activity call":"inactive"}
{"Gene":"Or19a (Odorant receptor 19a)","reagent":1,"mean Z score":-0.0949,"ATP luminescence, replicate 1":45868,"ATP luminescence, replicate 2":40931,"activity call":"inactive"}
{"Gene":"CG12773","reagent":1,"mean Z score":-0.514,"ATP luminescence, replicate 1":41742,"ATP luminescence, replicate 2":36990,"activity call":"inactive"}
{"Gene":"CG12773","reagent":2,"mean Z score":-0.678,"ATP luminescence, replicate 1":41102,"ATP luminescence, replicate 2":39679,"activity call":"inactive"}
{"Gene":"Vha16-3 (Vacuolar H[+] ATPase 16kD subunit 3)","reagent":1,"mean Z score":0.684,"ATP luminescence, replicate 1":86989,"ATP luminescence, replicate 2":70392,"activity call":"inactive"}
{"Gene":"Vha16-3 (Vacuolar H[+] ATPase 16kD subunit 3)","reagent":2,"mean Z score":0.775,"ATP luminescence, replicate 1":65948,"ATP luminescence, replicate 2":58594,"activity call":"inactive"}
